From publication PMC8980529
These are yes or no findings as the source states them, for the method shown. Some entries that bind do so weakly or less than the wild type.

Key:
[1] = molecular target: T1, Osteoadherin (UniProt Q99983); assay: peptide or protein array; ECM proteins (0.5 mg/ml) printed on nitrocellulose-covered slides in triplicates, blocked with 4% BSA; incubated with FHR1 (5, 25, 50 µg/ml) or FHR5 (0.5, 5, 20 µg/ml); detected with goat anti-human FH or anti-FHR5 and Alexa-647 anti-goat IgG; signal above gelatin taken as binding; both purified
T1 sequence: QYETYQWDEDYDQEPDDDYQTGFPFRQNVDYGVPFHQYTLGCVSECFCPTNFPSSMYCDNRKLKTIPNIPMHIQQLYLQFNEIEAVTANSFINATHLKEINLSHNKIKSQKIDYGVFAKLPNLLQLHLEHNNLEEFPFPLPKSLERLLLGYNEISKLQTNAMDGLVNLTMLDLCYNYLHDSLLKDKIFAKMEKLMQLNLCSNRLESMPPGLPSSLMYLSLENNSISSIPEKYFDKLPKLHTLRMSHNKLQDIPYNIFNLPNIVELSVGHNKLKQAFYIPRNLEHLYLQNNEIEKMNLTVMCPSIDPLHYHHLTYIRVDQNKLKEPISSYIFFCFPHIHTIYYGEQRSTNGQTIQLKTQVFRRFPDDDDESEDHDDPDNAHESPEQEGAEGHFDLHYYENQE

[2] = molecular target: T2, Proline/arginine-rich end leucine-rich repeat protein (UniProt P51888); assay: as above
T2 sequence: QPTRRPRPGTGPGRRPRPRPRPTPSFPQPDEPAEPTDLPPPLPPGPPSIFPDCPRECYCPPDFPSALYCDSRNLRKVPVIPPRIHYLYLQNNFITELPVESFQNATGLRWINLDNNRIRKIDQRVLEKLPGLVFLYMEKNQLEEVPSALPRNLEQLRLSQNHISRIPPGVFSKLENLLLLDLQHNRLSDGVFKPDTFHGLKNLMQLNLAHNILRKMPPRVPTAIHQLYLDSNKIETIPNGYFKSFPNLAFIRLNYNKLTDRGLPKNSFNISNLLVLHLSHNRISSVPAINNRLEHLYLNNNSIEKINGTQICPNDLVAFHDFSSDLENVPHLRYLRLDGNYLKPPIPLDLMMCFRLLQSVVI

[3] = molecular target: T1, Osteoadherin; assay: ELISA; ECM proteins immobilised (10 µg/ml), incubated with FHR5 and its fragments CCPs 1-4, CCPs 3-7, CCPs 8-9 in equimolar concentrations (100 nM or 200 nM); detected with goat anti-human FHR5; both purified
[4] = molecular target: T3, Fibromodulin (UniProt Q06828); assay: as above
T3 sequence: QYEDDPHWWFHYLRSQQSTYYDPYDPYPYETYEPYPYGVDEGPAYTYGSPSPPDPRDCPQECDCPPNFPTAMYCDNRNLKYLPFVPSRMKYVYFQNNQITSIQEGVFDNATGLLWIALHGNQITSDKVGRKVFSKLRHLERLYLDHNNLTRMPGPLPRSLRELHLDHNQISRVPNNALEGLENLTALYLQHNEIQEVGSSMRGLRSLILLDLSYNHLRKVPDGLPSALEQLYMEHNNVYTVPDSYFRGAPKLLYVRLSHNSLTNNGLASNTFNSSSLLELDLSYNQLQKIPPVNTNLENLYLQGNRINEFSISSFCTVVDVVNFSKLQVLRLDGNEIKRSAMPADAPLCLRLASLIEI

[5] = molecular target: T2, Proline/arginine-rich end leucine-rich repeat protein; assay: as above

binding [1]: binds
binding [2]: binds
binding [3]: binds
binding [4]: binds
binding [5]: binds
B1: Recombinant human factor H-related protein 5 (protein, UniProt Q9BXR6 19-569)
chain: EGTLCDFPKIHHGFLYDEEDYNPFSQVPTGEVFYYSCEYNFVSPSKSFWTRITCTEEGWSPTPKCLRMCSFPFVKNGHSESSGLIHLEGDTVQIICNTGYSLQNNEKNISCVERGWSTPPICSFTKGECHVPILEANVDAQPKKESYKVGDVLKFSCRKNLIRVGSDSVQCYQFGWSPNFPTCKGQVRSCGPPPQLSNGEVKEIRKEEYGHNEVVEYDCNPNFIINGPKKIQCVDGEWTTLPTCVEQVKTCGYIPELEYGYVQPSVPPYQHGVSVEVNCRNEYAMIGNNMITCINGIWTELPMCVATHQLKRCKIAGVNIKTLLKLSGKEFNHNSRIRYRCSDIFRYRHSVCINGKWNPEVDCTEKREQFCPPPPQIPNAQNMTTTVNYQDGEKVAVLCKENYLLPEAKEIVCKDGRWQSLPRCVESTAYCGPPPSINNGDTTSFPLSVYPPGSTVTYRCQSFYKLQGSVTVTCRNKQWSEPPRCLDPCVVSEENMNKNNIQLKWRNDGKLYAKTGDAVEFQCKFPHKAMISSPPFRAICQEGKFEYPICE
